# Reference: article PMC5996148
# Amino acid sequences for entries named in this document (tags omitted).
# UniProt Q9UIV1, whole entry: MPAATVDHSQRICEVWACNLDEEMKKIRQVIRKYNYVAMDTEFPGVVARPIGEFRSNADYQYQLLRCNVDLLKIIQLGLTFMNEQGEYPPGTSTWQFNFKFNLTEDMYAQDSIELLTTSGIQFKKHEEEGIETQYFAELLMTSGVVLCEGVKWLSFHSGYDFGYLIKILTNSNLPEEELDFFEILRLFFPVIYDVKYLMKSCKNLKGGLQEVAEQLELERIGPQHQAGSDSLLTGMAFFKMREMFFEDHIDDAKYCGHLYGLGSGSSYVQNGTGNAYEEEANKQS
# “And” between values parts separate entries of the source, which are not always exact repeats. Equal entries are not always repeated. The list shows a part of the results. For some assays here: Construct or isoform of the protein are uncertain.
# Key:
# Experiment in all cases: protein microarray (ProtoArray v5.0), streptavidin-Alexa Fluor 647
# Conditions in all cases: 3'-biotin; 20 mM Tris (pH 7.5), 5 mM MgCl2, 100 mM KCl, 0.1% Tween-20, A/T-rich and random oligonucleotide blockers; temperature not stated; high values mean tight binding
# [1] = test system: CDK6 (human)
# [2] = test system: CDKN2D (human)
# [3] = test system: CEACAM6 (human)
# [4] = test system: CENTD2 (human)
# [5] = test system: CHEK2 (human)
# [6] = test system: CHN1 (human)
# [7] = test system: CHRAC1 (human)
# [8] = test system: CIAPIN1 (human)
# [9] = test system: CKB (human)
# [10] = test system: CKLFSF5 (human)
# [11] = test system: CKM (human)
# [12] = test system: CLCF1 (human)
# [13] = test system: CLDN2 (human)
# [14] = test system: CLP1 (human)
# [15] = target: T1, CLTA (UniProt P09496)
# T1 sequence: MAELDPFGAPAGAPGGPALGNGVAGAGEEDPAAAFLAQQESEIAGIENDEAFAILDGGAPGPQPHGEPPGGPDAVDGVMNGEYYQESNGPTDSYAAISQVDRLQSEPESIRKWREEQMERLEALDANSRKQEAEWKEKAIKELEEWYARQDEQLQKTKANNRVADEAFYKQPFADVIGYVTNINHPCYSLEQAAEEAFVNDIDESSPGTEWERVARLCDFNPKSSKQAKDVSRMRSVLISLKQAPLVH
# [16] = test system: CLTB (human)
# [17] = test system: CLUL1 (human)
# [18] = test system: CNNM1 (human)
# [19] = target: CNOT7 (UniProt Q9UIV1)
# [20] = test system: COASY (human)
sequence,measurement,setting,value
GGTGACAGGGGTATGGGGAGGGG [G4-2 biotinylated (Ct1)],binding signal,[1],-0.38 z-score
same,binding signal,[2],-0.398 z-score
same,binding signal,[3],-0.387 z-score
same,binding signal,[4],-0.382 z-score
same,binding signal,[5],-0.369 z-score
same,binding signal,[6],-0.395 z-score
same,binding signal,[7],-0.39 z-score
same,binding signal,[8],-0.384 z-score
same,binding signal,[9],-0.378 z-score
same,binding signal,[10],-0.391 z-score
same,binding signal,[11],-0.392 z-score
same,binding signal,[12],-0.393 z-score
same,binding signal,[13],-0.376 z-score
same,binding signal,[14],-0.383 z-score
same,binding signal,[15],-0.399 z-score
same,binding signal,[16],-0.403 z-score
same,binding signal,[17],-0.385 z-score
same,binding signal,[18],-0.362 z-score
same,binding signal,[19],-0.377 z-score
same,binding signal,[20],-0.383 z-score and -0.372 z-score

# Some of the entries above, reformatted.
sequence	measurement	setting	value
GGTGACAGGGGTATGGGGAGGGG [G4-2 biotinylated (Ct1)]	binding signal	[14]	-0.383 z-score
same	binding signal	[20]	-0.383 z-score and -0.372 z-score
